# Earlier results in patent publication US9694043B2, “Composition for preventing or treating hearing loss” (UNIVERSITY-INDUSTRY COOPERATION GROUP OF KYUNG HEE …, priority 2011, dated 2017).
# At least one compound was matched to its structure with a doubt left.
# System: soldiers
# Settings: 60 U.S. soldiers, Ebselen for 2 weeks during weapons training
structure (smiles),measurement,value
O=c1c2ccccc2[se]n1-c1ccccc1 [Ebselen],Effect on temporary and permanent hearing losses,effects on both temporary and permanent hearing losses
